Experimental data taken from publication PMC7819943, “Rice protein-binding microarrays: a tool to detect cis-acting elements near promoter regions in rice”.
The list shows a part of the results.

By UniProt entry, the sequences of proteins in these tests, tags left out.
UniProt Q0JBA9, entry or part of it: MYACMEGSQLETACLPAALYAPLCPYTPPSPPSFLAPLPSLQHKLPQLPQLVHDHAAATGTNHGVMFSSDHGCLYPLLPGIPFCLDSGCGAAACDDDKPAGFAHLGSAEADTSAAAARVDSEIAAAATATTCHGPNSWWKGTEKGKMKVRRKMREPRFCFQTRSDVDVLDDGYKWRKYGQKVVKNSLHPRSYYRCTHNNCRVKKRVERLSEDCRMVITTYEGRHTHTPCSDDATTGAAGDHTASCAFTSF

Each sequence was assayed against OsWRKY34 (Oryza sativa, UniProt Q0JBA9 1-250) (assay: protein-binding microarray (RPBM); PBS, 2% BSA, 51.3 ng/ul salmon testes DNA, 50 uM zinc acetate, 200 nM TF, 25 C, 1 h; high values mean tight binding). Conditions: protein: recombinant; tags: N-terminal polyhistidine and DsRed monomer fusion (pET32a); label: CyDye5-dUTP incorporated in the synthesized complementary strand; 3' TTTTT single-stranded linker to array surface; dsDNA, one strand shown.
Outline: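 Using Ni–NTA, transcription factors fused N-terminally to polyhistidine and DsRed were purified after expression in E. coli BL21-CodonPlus. These were incubated at 200 nM with a blocked, double-stranded custom Agilent array for 1 h at 25 °C in a buffer containing 50 µM zinc acetate, and the array was washed. The binding signal is per-feature fluorescence intensity (arbitrary units) on an Axon 4000B scanner.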
“AATCTTGTCGTTTGTGTTTTTTTTCATCCTATCAAGTTGTCGGAGTCACCTAGTGCAG” was tested, and the binding signal was 14100 fluorescence intensity (a.u.).
“CACCTTACGCTTCTGCCCTATCGATCACTTGTCGCCTCAGCGGAGTCACCTAGTGCAG” was tested, and the binding signal was 9990 fluorescence intensity (a.u.).
For “TTTCTACTAGTACTCTATTTTTTTCTCTTCTATCACCATTCGGAGTCACCTAGTGCAG”, the binding signal was 9730 fluorescence intensity (a.u.).
In the case of “CGCGTTCTTCACCGGCATTTCCTCGAACGCCATCCGTGAACGGAGTCACCTAGTGCAG”, the binding signal is reported as 9370 fluorescence intensity (a.u.).
In the case of “GATTGCTTATCGATATCTCATCCGTCCGATAGTCATATATCGGAGTCACCTAGTGCAG”, the binding signal is reported as 16300 fluorescence intensity (a.u.).
“GGCACTAACCAACAAACGCACACTCCACAGCCATCATCGCCGGAGTCACCTAGTGCAG” was tested, and the binding signal was 9430 fluorescence intensity (a.u.).
With “TTATAGGGTTTGTTTATTATGTTGCCACTTTTAACTACACCGGAGTCACCTAGTGCAG” the binding signal was 9980 fluorescence intensity (a.u.).
With “TTTCTGCATCTTAATATTTGTAACAAATCTAACGAATACTCGGAGTCACCTAGTGCAG” the binding signal was 8170 fluorescence intensity (a.u.).
For “GGATAGAGTAGTTTGTTTGGATCTGATGGTTACACATTGACGGAGTCACCTAGTGCAG”, the binding signal was 8170 fluorescence intensity (a.u.).
With “GTCCGCATCTCATCCTTCCGCAAGTCCGTATCTCATCCCTCGGAGTCACCTAGTGCAG” the binding signal was 10400 fluorescence intensity (a.u.).
“TTTTGTTTTGTAGTATCTTCTCTGGCTCGATGTCATCATTCGGAGTCACCTAGTGCAG” was tested, and the binding signal was 8900 fluorescence intensity (a.u.).
For “AGCACATTGTTTCAGATCATTCTCGAGATTTCAGCCTTCTCGGAGTCACCTAGTGCAG”, the binding signal was 9640 fluorescence intensity (a.u.).
In the case of “CATCGATCGCACTAGTGTCGCTCTCTGGAAGTAATAGCCTCGGAGTCACCTAGTGCAG”, the binding signal is reported as 8110 fluorescence intensity (a.u.).
“CGTCTCCGCCGCTGCTTGAATCTGCCGCCACCATCACCGCCGGAGTCACCTAGTGCAG” was tested, and the binding signal was 8910 fluorescence intensity (a.u.).
For “CAACTATGACAGGTCACTACTACCAGTAGCATGATGTTAGCGGAGTCACCTAGTGCAG”, the binding signal was 8170 fluorescence intensity (a.u.).
“CATGGGAGGCGGGGCCCATTGTTTCTTGTGTTCATGGCCTCGGAGTCACCTAGTGCAG” was tested, and the binding signal was 10300 fluorescence intensity (a.u.).
For “CTCCCATTGACCCATTTATTTGTTGAAACCACGTTTTCGTCGGAGTCACCTAGTGCAG”, the binding signal was 10100 fluorescence intensity (a.u.).
“GCACTATTCTTTAGCACCGTACAAGTTCGCGAGCCCAGAACGGAGTCACCTAGTGCAG” was tested, and the binding signal was 9390 fluorescence intensity (a.u.).
With “CCTAGTCTCTTCCTGCTGCTACTGCTGCTGCTCTCGTATTCGGAGTCACCTAGTGCAG” the binding signal was 8320 fluorescence intensity (a.u.).
With “CTCTCTCTCTCTCTCGTTCGTTCCCCGGTCAGTCAACCGTCGGAGTCACCTAGTGCAG” the binding signal was 10200 fluorescence intensity (a.u.).
“TTGCCACCACCAAATCAGCTGAGATCTCACTTTTGATTCGCGGAGTCACCTAGTGCAG” was tested, and the binding signal was 8030 fluorescence intensity (a.u.).
In the case of “GCGGCTTCTTCTCGGGGTGGATTTGGTGGTGGTTTTTTTTCGGAGTCACCTAGTGCAG”, the binding signal is reported as 21500 fluorescence intensity (a.u.).
“GCGAGCTCCTACGCCGTCAACTTCCCGCCGCTGCTGCCCGCGGAGTCACCTAGTGCAG” was tested, and the binding signal was 8910 fluorescence intensity (a.u.).
With “CAGTTTGCACTGCATCCCGGCGCGACATTACGTCGAACACCGGAGTCACCTAGTGCAG” the binding signal was 8240 fluorescence intensity (a.u.).
For “TTCTTCTCTGATGCATCCTGTTCTCCACCATTCCATCTCTCGGAGTCACCTAGTGCAG”, the binding signal was 8690 fluorescence intensity (a.u.).
“CTAGTCCATCGATCGAGGTTACACGCATGACGTACATAATCGGAGTCACCTAGTGCAG” was tested, and the binding signal was 8440 fluorescence intensity (a.u.).
With “TTCTTCTCTACCTGCATTAATTTGGTTTTGTTTTAAGTGACGGAGTCACCTAGTGCAG” the binding signal was 9770 fluorescence intensity (a.u.).
With “GATCTCTGCCTATTCTTCTCTTCCACCGGCGACAAGATCGCGGAGTCACCTAGTGCAG” the binding signal was 9710 fluorescence intensity (a.u.).
With “TAGACAGTCCCATTCCACCACCTCAGCTGCCGTGAAAGAACGGAGTCACCTAGTGCAG” the binding signal was 9010 fluorescence intensity (a.u.).
With “CGTCTCTTCTCTCCCGCTCCTTGCGCCATCTCGCGGCTGACGGAGTCACCTAGTGCAG” the binding signal was 9810 fluorescence intensity (a.u.).
“CTGCTTCCGTGTTGATACTTTCTTGGTACTGAACTACTTACGGAGTCACCTAGTGCAG” was tested, and the binding signal was 8890 fluorescence intensity (a.u.).
In the case of “TTTTTGGTTTTTTGTCGAGGATAAATCCTCGCGTTTTTCTCGGAGTCACCTAGTGCAG”, the binding signal is reported as 9260 fluorescence intensity (a.u.).
“GCATACGCAACCTCACTGATCTCTCCCTGCGCCATAACAACGGAGTCACCTAGTGCAG” was tested, and the binding signal was 9800 fluorescence intensity (a.u.).
“GAAATTTTGTGTGTTTTCAGGCTATACTCAGAACTGACCTCGGAGTCACCTAGTGCAG” was tested, and the binding signal was 8920 fluorescence intensity (a.u.).
“GAGGTTTTGGTTGACGTGGCGCCTATATGACGGTGTTGACCGGAGTCACCTAGTGCAG” was tested, and the binding signal was 11300 fluorescence intensity (a.u.).
In the case of “CGGGACACACGTCTTACACATCAGCATTTGCTAAGCATACCGGAGTCACCTAGTGCAG”, the binding signal is reported as 9460 fluorescence intensity (a.u.).
For “ATTGAATCAGGATATTTTACTTTCGCCTTTGCTCTGAAAACGGAGTCACCTAGTGCAG”, the binding signal was 8880 fluorescence intensity (a.u.).
For “TGTTTGCTTCATACTAAGATTTCGGTTGTTCAAGCTTTCGCGGAGTCACCTAGTGCAG”, the binding signal was 8290 fluorescence intensity (a.u.).
For “CAGTGGTCCTGATTATACTATGGAATATATTCCATTATTACGGAGTCACCTAGTGCAG”, the binding signal was 8090 fluorescence intensity (a.u.).
For “TGGAACCGGATTTTTTTAGTTGTTTTTCGCTATTTTTTCCCGGAGTCACCTAGTGCAG”, the binding signal was 9760 fluorescence intensity (a.u.).
With “CTCCTCATCCATCCACCACACCACTTGCCTCCAAACAAAACGGAGTCACCTAGTGCAG” the binding signal was 9340 fluorescence intensity (a.u.).
For “TGTGACAGTTTTTATTTATCTTAATTACTATCTTTTTTTTCGGAGTCACCTAGTGCAG”, the binding signal was 9900 fluorescence intensity (a.u.).
